Measurements reported in publication PMC7862700.
Some of the results follow. Construct or isoform of the protein are uncertain.

Molecular target: T1, ETS1 (UniProt P14921)
T1 sequence: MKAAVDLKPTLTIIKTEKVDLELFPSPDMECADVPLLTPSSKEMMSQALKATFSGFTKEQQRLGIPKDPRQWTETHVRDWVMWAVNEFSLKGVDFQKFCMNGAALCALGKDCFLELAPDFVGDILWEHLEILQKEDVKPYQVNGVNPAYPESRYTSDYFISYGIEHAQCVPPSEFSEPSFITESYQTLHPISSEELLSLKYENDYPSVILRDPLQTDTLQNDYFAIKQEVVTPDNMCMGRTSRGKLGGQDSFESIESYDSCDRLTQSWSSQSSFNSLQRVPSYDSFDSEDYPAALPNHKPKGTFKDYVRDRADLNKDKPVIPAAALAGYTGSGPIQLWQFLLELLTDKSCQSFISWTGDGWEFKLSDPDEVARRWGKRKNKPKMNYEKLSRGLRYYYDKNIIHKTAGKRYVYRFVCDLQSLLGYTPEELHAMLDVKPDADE
Assay: DAPPL (digital affinity profiling via proximity ligation, sequencing)
Conditions: 10 mM Tris-HCl pH 7.5, 50 mM NaCl, 1 mM DTT, 4% glycerol, room temperature, 30 min; GST-TFs on glutathione beads, 16-mer random dsDNA library, 0.1% …; high values mean tight binding; double strand, one strand shown; scale: fold enrichment (6-mer frequency, TF over GST control)

Row | Sequence | binding signal
1 | GCCTTT | 1.26
2 | AGCCTC | 1.33
3 | ACACTT | 1.66
4 | TACTTA | 1.18
5 | GGCCCC | 1.02
6 | TGCCCG | 1.05
7 | TTTCTT | 1.36
8 | TCTTGA | 1.23
9 | TTTATT | 1.27
10 | CCCTAC | 1.47
11 | TATACT | 1.32
12 | CTTGTC | 1.38
13 | GCATCC | 1.53
14 | CATCTA | 1.23
15 | CACGCC | 1.23
16 | CTCCTC | 1.42
17 | CTTATC | 1.2
18 | ATTTTT | 1.24
19 | TTCATC | 1.25
20 | GCATTC | 1.14

Row | Sequence | binding signal
21 | AATAGA | 1.06
22 | TTCTCA | 1.32
23 | CATCCG | 2.04
24 | AAAGAA | 1.31
25 | ATCAAT | 1.03
26 | ATAAAC | 1.18
27 | AAAAGA | 1.2
28 | TGGCTA | 1.21
29 | CAATCC | 1.22
30 | GTTTTC | 1.24
31 | TTGATG | 1.67
32 | TAGCTA | 1.38
33 | ATTGCT | 1.22
34 | TTGTAC | 1.47
35 | ATATGC | 1.15
36 | TAAAGA | 1.06
37 | AATTCA | 1.42
38 | TTGCTA | 1.26
39 | TCTTTG | 1.14

Exported tab-delimited: entries from further up.
Row	Sequence	binding signal
21	AATAGA	1.06
22	TTCTCA	1.32
